Drawing on PMC2214798, this text covers binding for 2 molecules.

Results are given in words; binding and its absence hold for the method and conditions named. Binding seen in cells or lysates may run through a third protein.

The target of assay [1] is T1, glycogen synthase (GS), skeletal muscle (mouse (endogenous in skeletal muscle)) (UniProt Q9Z1E4).
T1 sequence: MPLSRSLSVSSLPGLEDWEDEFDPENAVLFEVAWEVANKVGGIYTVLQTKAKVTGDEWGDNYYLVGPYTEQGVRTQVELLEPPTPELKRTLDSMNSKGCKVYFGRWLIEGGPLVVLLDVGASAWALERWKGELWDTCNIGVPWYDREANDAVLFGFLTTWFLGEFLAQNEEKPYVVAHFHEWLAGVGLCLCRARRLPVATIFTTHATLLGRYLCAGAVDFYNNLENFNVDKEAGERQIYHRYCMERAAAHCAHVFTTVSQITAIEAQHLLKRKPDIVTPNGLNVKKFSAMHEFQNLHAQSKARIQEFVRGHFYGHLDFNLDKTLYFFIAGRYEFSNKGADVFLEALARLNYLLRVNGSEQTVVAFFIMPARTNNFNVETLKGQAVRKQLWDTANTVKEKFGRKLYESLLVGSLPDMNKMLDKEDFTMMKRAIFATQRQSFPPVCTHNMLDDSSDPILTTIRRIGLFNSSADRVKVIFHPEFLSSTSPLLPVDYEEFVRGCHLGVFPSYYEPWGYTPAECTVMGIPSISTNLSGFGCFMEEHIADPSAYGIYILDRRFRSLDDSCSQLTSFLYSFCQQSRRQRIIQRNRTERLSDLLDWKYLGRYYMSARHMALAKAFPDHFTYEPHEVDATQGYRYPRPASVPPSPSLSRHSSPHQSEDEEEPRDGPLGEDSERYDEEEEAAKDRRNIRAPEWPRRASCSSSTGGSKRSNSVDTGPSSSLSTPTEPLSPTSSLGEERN
The assay is described as follows: pull-down; GS of skeletal muscle extracts (WT and RGL kin homozygous mice) pulled down through GST-GN(297–333), before and after α-amylase digestion of glycogen; blot for RGL associated with GS.

Assay [2] concerns the target T2, RGL, muscle-specific glycogen-targeting subunit of protein phosphatase 1 (wild type, full length) (mouse (endogenous in skeletal muscle)) (UniProt Q99MR9).
T2 sequence: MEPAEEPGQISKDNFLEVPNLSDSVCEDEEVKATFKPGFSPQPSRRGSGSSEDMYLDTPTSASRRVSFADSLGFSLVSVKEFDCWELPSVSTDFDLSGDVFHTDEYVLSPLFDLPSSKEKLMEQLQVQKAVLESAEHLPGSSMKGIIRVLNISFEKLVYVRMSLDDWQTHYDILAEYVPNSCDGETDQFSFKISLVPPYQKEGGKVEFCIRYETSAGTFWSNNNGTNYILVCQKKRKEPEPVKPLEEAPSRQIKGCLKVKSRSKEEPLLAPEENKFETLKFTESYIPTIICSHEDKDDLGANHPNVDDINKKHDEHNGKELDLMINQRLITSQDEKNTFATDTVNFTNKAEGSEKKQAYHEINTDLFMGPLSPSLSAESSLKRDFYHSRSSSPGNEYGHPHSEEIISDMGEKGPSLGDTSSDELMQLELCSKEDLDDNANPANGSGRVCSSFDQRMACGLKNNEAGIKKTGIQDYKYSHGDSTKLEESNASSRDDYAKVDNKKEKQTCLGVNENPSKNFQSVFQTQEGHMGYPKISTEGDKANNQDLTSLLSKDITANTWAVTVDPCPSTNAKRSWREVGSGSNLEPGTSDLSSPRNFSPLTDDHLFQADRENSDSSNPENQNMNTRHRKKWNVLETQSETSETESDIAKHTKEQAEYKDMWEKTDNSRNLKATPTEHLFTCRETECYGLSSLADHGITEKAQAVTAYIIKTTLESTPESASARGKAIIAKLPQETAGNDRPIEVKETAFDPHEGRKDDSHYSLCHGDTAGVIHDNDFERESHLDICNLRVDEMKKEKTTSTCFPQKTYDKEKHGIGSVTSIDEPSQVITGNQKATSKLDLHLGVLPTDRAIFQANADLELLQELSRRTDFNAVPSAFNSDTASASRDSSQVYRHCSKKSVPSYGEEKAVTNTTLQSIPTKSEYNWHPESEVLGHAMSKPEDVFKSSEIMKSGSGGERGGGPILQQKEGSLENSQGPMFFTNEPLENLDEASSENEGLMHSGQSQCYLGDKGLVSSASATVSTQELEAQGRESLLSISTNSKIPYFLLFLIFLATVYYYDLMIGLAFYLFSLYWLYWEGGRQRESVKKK
In words: co-IP; RGL immunoprecipitated from skeletal muscle extracts of WT, RGL kin heterozygous and homozygous mice with antibodies against the N-terminal 262 residues or the C-terminal 325-1042 amino acids of RGL; Western blots for RGL and GS.

B1: RGL, muscle-specific glycogen-targeting subunit of protein phosphatase 1 (wild type, full length) (protein, UniProt Q99MR9 1-1089)
chain: T2 sequence
B1: the binding entry in assay [1] is listed as “no binding”.

B2: glycogen synthase (GS), skeletal muscle (enzyme, UniProt Q9Z1E4 1-738)
chain: T1 sequence
As for B2, the binding entry in assay [2] is given as “no binding”.
